Screen size: about 220,000 compounds; about 770 (0.35%) were called active. The inconclusive results got no clear call from the source; some entries with a clear call stand among them for comparison. Cut-off read from the data, not from the text of the source: active = binding response below about 49% or above about 150%; inconclusive = no clear call, values can overlap the other calls; inactive = in between.
The molecules below were run against Guanine nucleotide-binding protein G(o) subunit alpha (Homo sapiens) (UniProt P09471) (assay: RGS7-Galphao binding modulators, primary screen, biochemical, multiplexed bead flow cytometry (AID 1439;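 note: fluorescent Galphao held in activated GDP-AlF4 state binding bead-coupled RGS7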)). Conditions: at 10 µM, actives lie on both sides.

Amino acid sequences for entries named in this document (tags omitted).
UniProt P09471, whole entry, looked up: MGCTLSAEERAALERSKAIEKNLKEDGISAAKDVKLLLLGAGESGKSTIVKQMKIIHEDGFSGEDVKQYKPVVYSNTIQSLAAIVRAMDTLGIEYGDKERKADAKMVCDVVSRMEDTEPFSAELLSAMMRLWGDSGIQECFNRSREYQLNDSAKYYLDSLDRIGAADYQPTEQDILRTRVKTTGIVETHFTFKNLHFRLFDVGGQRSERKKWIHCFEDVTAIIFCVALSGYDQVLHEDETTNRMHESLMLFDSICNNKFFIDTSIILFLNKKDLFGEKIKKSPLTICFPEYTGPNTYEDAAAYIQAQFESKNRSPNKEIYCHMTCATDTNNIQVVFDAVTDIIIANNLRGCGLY

| Compound | binding response (% of control) |
| --- | --- |
| CC(=O)Oc1ccc(N2C(=O)C3C(C2=O)C(C(=O)c2ccc(Cl)cc2)N2CCCC32)cc1 (stereo unspecified) | inconclusive: 64.9% |
| COc1ccc(/C=N/NC(=O)CCN2CCCCC2c2cccnc2)cc1Cn1cc([N+](=O)[O-])cn1 (stereo unspecified) | inconclusive: 71.9% |
| CN(Cc1ccccc1)C(=O)COC(=O)c1ccc(S(=O)(=O)N(C)C)cc1 | inconclusive: 101% |
| O=C1CC(c2cccs2)Cc2nc(NC(=O)C3CC3)ncc21 (stereo unspecified) | inconclusive: 94.8% |
| O=S(=O)(Nc1ccncc1Cl)c1cc(Cl)ccc1Cl | inconclusive: 220% |
| O=C(CSc1nnc2c(n1)[nH]c1ccccc12)Nc1ccc(N2CCOCC2)cc1 | inconclusive: 103% |
| CCC(C)(C)NC(=O)C(c1ccc(O)cc1)N(C(=O)Cn1nnc2ccccc21)c1ccc(NC(C)=O)cc1 (stereo unspecified) | inconclusive: 96.8% |
| O=C(O)c1cc(/C=C/c2ccc(N3CCOCC3)c([N+](=O)[O-])c2)nc2ccccc12 | inconclusive: 107% |
| CC(=O)Nc1ccc2nc(CN3CCN(Cc4ccc(F)cc4)C(CCO)C3)ccc2c1 (stereo unspecified) | inactive: 108% |
| O=C(Nc1ccncc1)c1cc(-c2ccccn2)nc2ccc(Br)cc12 | inconclusive: 82.9% |
| COc1cc2c(cc1NC(=S)NC(=O)/C=C/c1ccco1)oc1ccccc12 | inactive: 98.8% |
| COC(=O)C(C)NC(=O)COc1ccc2ccccc2c1 (stereo unspecified) | inconclusive: 90% |
| CC(C)(C)CC(=O)O/N=C(\N)c1ccncc1 | inconclusive: 103% |
| c1ccc(-c2ncc(CN3CCN(c4ccccn4)CC3)[nH]2)cc1 | inconclusive: 140% |
| O=C1CCN(S(=O)(=O)c2ccc(Cl)cc2)CCN1 | inconclusive: 52.7% |
| COc1ccc(/C(O)=C2/C(=O)C(=O)N(c3ncccn3)C2c2ccc(F)cc2)cc1 (stereo unspecified) | inconclusive: 63.7% |
| Cc1ccccc1N1C(=O)C(Cc2ccc(F)cc2)S/C1=C(\C#N)C(N)=O (stereo unspecified) | inconclusive: 62.1% |
| COC(C[C@H](O)[C@H](C)[C@H](O)COCc1ccccc1)OC | inconclusive: 94.4% |
| c1ccc(Cn2c3ccccc3c3nnc(SCCN4CCCCC4)nc32)cc1 | inconclusive: 79.3% |

| Compound | binding response (% of control) |
| --- | --- |
| CCN(CC)Cc1nc2sc(C)c(C)c2c(=O)[nH]1 | inconclusive: 112% |
| COc1ccccc1NC(=O)CN1CCN(CC(=O)Nc2ccc(Cl)c(C(F)(F)F)c2)CC1 | inactive: 103% |
| CCCCn1c(SCC(=O)N2CCCc3ccccc32)nc2c1c(=O)n(C)c(=O)n2C | inactive: 91.2% |
| COCC(=O)NC1(c2nnnn2CCOC(=O)Nc2ccc(Cl)cc2)CCCCC1 | active: 255% [activator] |
| Cc1cccc(COc2ccc(/C=N/NC(=O)c3nnn(-c4nonc4N)c3COc3ccc(F)cc3)cc2)c1 | inconclusive: 115% |
| Cc1nnsc1C(=O)N/N=C/c1ccc(OC(F)(F)F)cc1 | inactive: 99.6% |
| Cc1ccc(OCC(=O)c2ccc(Cl)s2)c([N+](=O)[O-])n1 | inconclusive: 75.1% |
| Cc1scc(C(=O)N2CCN(c3ccc(Cl)cc3)CC2)c1C | inconclusive: 49.8% |
| O=C1Oc2ccccc2C(=O)/C1=C\N1CCN(c2ccccc2)CC1 | inconclusive: 91.3% |
| O=C(NCC1OCCc2ccccc21)c1ccc(NC(=O)c2ccc(Cl)cc2Cl)cc1 (stereo unspecified) | active: 329% [activator] |
| COC(=O)C(NC(=O)CSc1nc(N)cc(=O)[nH]1)c1ccccc1 (stereo unspecified) | inactive: 91.9% |
| Cc1ccc(-c2nc(-c3cccnc3)sc2CC(=O)O)cc1 | inconclusive: 121% |
| COc1ccc(NC(=O)c2ccc(-n3cccn3)c([N+](=O)[O-])c2)cc1 | inconclusive: 116% |
| CCn1c(=NC(=O)C2COc3ccccc3O2)sc2c(C)ccc(OC)c21 (stereo unspecified) | inconclusive: 93.4% |
| COCCCN(C(=S)Nc1cc(Cl)cc(Cl)c1)C(C)c1ccccn1 (stereo unspecified) | inconclusive: 41.1% |
| O=C(CSCc1ccc(Br)cc1)NC1CC1 | inconclusive: 107% |
| CC(=O)NC(C)CCc1ccccc1 (stereo unspecified) | inconclusive: -372% |
| N#CC(C(=O)c1ccccc1Cl)=C1SCCCS1 | inconclusive: -7.65% |
| COc1ccc(NS(=O)(=O)c2ccc(NC(=O)C(CCSC)NC(N)=O)cc2)cc1 (stereo unspecified) | inconclusive: 82% |

| Compound | binding response (% of control) |
| --- | --- |
| C/C=C/c1ccc(OCC(=O)O)c(OC)c1 | inconclusive: 107% |
| COC(=O)c1sccc1NC(=S)OC | inconclusive: 118% |
| CCCCOc1ccc2c(c1)/C(=C(\C(Cl)=C(Cl)Cl)[N+](=O)[O-])N2 | inactive: 96.8% |
| COc1ccc(N2C(=O)C3CCCN3C2=O)cc1 (stereo unspecified) | inactive: 116% |
| COc1ccc(C(=O)NNC(=O)CSc2nnc(-c3cccnc3)n2C)cc1 | inconclusive: 114% |
| CC(CCc1ccccc1)NCC#N (stereo unspecified) | inconclusive: 98.2% |
| O=C(Cn1c2ccccc2c(=O)c2cc([N+](=O)[O-])ccc21)Nc1ccccc1Cl | inactive: 120% |
| COc1ccc(OCC(=O)N2N=C(C)CC2(O)C(F)(F)F)cc1 (stereo unspecified) | inconclusive: 115% |
| COc1ccccc1-n1c(O)c(C=NCc2ccccn2)c2ccccc2c1=O | inconclusive: 132% |
| COc1ccc(NC(=O)CCNS(=O)(=O)c2ccc3c(c2)c(=O)n(C)c(=O)n3C)cc1OC | inconclusive: 108% |
| COc1ccc(CCNC(=O)c2ccc(-c3ccc([N+](=O)[O-])cc3)o2)cc1OC | inactive: 95.7% |
| COCCn1c(C)cc(C(=O)CSc2nc3ccccc3c(=O)n2C(C)COC)c1C (stereo unspecified) | inconclusive: 99.6% |
| CC1(C)CC(=O)C(N=Nc2ccc(S(=O)(=O)N3CCOCC3)cc2)=C(O)C1 | inconclusive: 70.1% |
| COc1cccc(NC(=S)N/N=C2\CC3CCC2(C)C3(C)C)c1 (stereo unspecified) | inconclusive: 108% |
| CC(=O)N1N=C(c2ccco2)CC1c1cc2cc(C)ccc2nc1Cl (stereo unspecified) | inconclusive: 273% |
| CCOc1cc(C(N)=O)cc(Cl)c1OCc1ccccc1 | inconclusive: 101% |
| OCCC1CN(Cc2cccn2-c2ncccn2)CCN1Cc1ccc(F)cc1 (stereo unspecified) | inconclusive: 112% |
| NS(=O)(=O)c1ccc(CNC(=O)/C=C/c2ccco2)cc1 | inconclusive: 90.4% |

A different layout for part of the listing above.
COC(=O)c1sccc1NC(=S)OC
  binding response (% of control): inconclusive: 118%
CCCCOc1ccc2c(c1)/C(=C(\C(Cl)=C(Cl)Cl)[N+](=O)[O-])N2
  binding response (% of control): inactive: 96.8%
COc1ccc(N2C(=O)C3CCCN3C2=O)cc1 (stereo unspecified)
  binding response (% of control): inactive: 116%
COc1ccc(C(=O)NNC(=O)CSc2nnc(-c3cccnc3)n2C)cc1
  binding response (% of control): inconclusive: 114%
